Assay results published in paper doi:10.1101/2020.06.22.164467.
These are yes or no findings as the source states them, for the method shown. In cells and extracts the contact can be indirect. Some entries that bind do so weakly or less than the wild type.

Protein sequences, listed by entry. Tags and fused reporters are not part of them. Lines headed by an entry give the natural chain unless they say otherwise; changes in a name come on top. Residues count along the entry.
UniProt P02545, residues 1-646: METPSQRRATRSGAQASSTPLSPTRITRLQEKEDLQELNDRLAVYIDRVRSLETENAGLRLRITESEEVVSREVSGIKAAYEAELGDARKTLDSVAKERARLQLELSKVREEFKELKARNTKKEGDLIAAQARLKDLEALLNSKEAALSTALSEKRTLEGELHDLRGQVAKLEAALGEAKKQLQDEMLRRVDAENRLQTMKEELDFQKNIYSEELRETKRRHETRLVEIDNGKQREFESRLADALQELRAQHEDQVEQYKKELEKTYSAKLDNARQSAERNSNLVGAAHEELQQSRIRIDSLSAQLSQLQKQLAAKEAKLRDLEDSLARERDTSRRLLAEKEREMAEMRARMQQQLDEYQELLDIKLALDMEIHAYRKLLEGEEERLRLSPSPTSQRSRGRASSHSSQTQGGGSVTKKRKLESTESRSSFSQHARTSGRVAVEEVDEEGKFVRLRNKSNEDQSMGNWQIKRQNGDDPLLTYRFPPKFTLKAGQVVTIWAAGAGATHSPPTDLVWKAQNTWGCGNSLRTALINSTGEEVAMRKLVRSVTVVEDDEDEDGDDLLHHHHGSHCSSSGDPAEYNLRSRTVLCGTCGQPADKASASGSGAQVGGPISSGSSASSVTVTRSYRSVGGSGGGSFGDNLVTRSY
UniProt P05787: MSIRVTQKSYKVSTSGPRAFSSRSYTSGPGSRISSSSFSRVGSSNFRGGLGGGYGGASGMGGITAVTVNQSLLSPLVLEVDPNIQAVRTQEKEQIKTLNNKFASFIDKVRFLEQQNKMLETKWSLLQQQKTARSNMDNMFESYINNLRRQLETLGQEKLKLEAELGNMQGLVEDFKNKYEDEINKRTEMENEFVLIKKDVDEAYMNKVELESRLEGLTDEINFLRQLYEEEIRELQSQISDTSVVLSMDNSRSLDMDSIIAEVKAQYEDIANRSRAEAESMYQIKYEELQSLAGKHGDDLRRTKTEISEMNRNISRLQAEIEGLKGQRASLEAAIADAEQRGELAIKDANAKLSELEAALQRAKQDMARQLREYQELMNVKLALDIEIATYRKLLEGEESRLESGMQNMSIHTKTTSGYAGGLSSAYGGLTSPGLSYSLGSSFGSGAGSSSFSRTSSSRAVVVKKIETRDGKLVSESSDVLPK
UniProt P05783: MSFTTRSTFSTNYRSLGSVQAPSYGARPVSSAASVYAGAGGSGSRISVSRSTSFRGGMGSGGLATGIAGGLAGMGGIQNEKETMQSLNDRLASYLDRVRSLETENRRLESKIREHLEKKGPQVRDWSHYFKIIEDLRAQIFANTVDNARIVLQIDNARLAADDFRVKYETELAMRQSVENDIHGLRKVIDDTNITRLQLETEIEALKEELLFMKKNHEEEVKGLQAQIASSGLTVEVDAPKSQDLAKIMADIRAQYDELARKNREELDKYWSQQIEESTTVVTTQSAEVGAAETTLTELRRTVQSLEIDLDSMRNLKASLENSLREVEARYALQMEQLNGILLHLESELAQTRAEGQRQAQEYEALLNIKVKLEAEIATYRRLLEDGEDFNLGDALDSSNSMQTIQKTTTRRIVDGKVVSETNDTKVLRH
UniProt P08727: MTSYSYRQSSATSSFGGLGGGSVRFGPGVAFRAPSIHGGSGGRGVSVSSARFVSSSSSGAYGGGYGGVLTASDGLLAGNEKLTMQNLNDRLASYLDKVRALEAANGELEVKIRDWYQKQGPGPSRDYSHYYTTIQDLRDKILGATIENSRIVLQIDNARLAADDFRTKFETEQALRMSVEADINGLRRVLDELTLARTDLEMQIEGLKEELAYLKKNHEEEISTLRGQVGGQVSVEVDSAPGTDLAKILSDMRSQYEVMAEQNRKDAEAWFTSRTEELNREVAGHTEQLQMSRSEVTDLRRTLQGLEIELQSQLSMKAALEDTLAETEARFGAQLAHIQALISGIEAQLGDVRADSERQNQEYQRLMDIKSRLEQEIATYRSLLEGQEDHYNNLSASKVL

Columns and labels:
[1] = target: lamin A (human (endogenous in Caco-2)) (UniProt P02545); assay: co-IP
[2] = target: keratin 8 / keratin 18 (K8/K18) (human (endogenous in Caco-2)) (UniProt P05787+P05783); assay: co-IP

Row | binding [1] | binding [2] | Substance
1 | binds |  | keratin 8 / keratin 18 (K8/K18) (from UniProt P05787 1-483; P05783 1-430) (complex)
2 | binds |  | keratin 19 (K19) (from UniProt P08727 1-400)
3 |  | binds | lamin A (from UniProt P02545 1-646)
